{"source": "PubChem BioAssay AID720505 (Drosophila RNAi Screening Center, 2013)", "purpose": "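Fly regulators or components of the CRAC channel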 (primary screen)", "cell system": "Drosophila S2R+ cells", "reagent": "long dsRNA against Drosophila genes", "conditions": "thapsigargin (2 µM) in calcium-free buffer to empty internal stores, then 2 mM calcium added back", "measured": "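Stores emptied by 2 µM thapsigargin without calcium, then 2 mM calcium re-added; fluo-4 fluorescence followed by FLIPR in 384-well plates, per-well averaged endpoint, raw; two screen passes, some wells retested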", "scale": "calcium signal: higher = more calcium entry after store depletion", "hit rule": "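Knock-downs counted as hits when calcium entry dropped relative to STIM1 positive and Rho1 negative controls present on each plate; roughly 1500 genes called, with reductions of differing size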", "meaning of the calls": "active = called as lowering calcium entry; inactive = not called", "note": "The deposit covers about 20,000 reagents; shown is an unselected part of those with a known target gene and a result. Over the whole deposit, about 2,100 (10%) are marked active. 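Raw plate signals without normalisation; calls rest on control-based scores that were not deposited; replicate 2 separates called from uncalled poorly.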 The numbers tell different reagents against one gene apart. A plus sign joins genes that one reagent is predicted to hit. Reagent sequences are not shown. Not stated in the record: the amount of reagent, the time to read-out."}
{"Target gene": "SiaT", "reagent": 1, "calcium signal, replicate 1": 117, "calcium signal, replicate 2": 194, "Outcome": "inactive"}
{"Target gene": "PIG-A", "reagent": 1, "calcium signal, replicate 1": 171, "calcium signal, replicate 2": 122, "Outcome": "inactive"}
{"Target gene": "SCCRO3", "reagent": 1, "calcium signal, replicate 1": 104, "calcium signal, replicate 2": 142, "Outcome": "inactive"}
{"Target gene": "Impbeta11 + asRNA:CR43429", "reagent": 1, "calcium signal, replicate 1": 135, "calcium signal, replicate 2": 170, "Outcome": "inactive"}
{"Target gene": "bor", "reagent": 1, "calcium signal, replicate 1": 125, "calcium signal, replicate 2": 151, "Outcome": "inactive"}
{"Target gene": "Oatp26F", "reagent": 1, "calcium signal, replicate 1": 133, "calcium signal, replicate 2": 131, "Outcome": "inactive"}
{"Target gene": "Oatp26F", "reagent": 2, "calcium signal, replicate 1": 64.4, "calcium signal, replicate 2": 136, "Outcome": "active"}
{"Target gene": "Oatp26F", "reagent": 3, "calcium signal, replicate 1": 130, "calcium signal, replicate 2": 120, "Outcome": "inactive"}
{"Target gene": "Cpr65Ax2 + Cpr65Ax1", "reagent": 1, "calcium signal, replicate 1": 133, "calcium signal, replicate 2": 108, "Outcome": "inactive"}
{"Target gene": "Cpr65Ax2 + Cpr65Ax1", "reagent": 2, "calcium signal, replicate 1": 136, "calcium signal, replicate 2": 110, "Outcome": "inactive"}
{"Target gene": "CG42337", "reagent": 1, "calcium signal, replicate 1": 116, "calcium signal, replicate 2": 130, "Outcome": "inactive"}
{"Target gene": "CG42337", "reagent": 2, "calcium signal, replicate 1": 81.5, "calcium signal, replicate 2": 86.4, "Outcome": "inactive"}
{"Target gene": "CG42337", "reagent": 3, "calcium signal, replicate 1": 99.5, "calcium signal, replicate 2": 122, "Outcome": "inactive"}
{"Target gene": "CG31806", "reagent": 1, "calcium signal, replicate 1": 114, "calcium signal, replicate 2": 99.5, "Outcome": "inactive"}
{"Target gene": "G6P", "reagent": 1, "calcium signal, replicate 1": 141, "calcium signal, replicate 2": 137, "Outcome": "inactive"}
{"Target gene": "Ada1-1 + Ada1-2", "reagent": 1, "calcium signal, replicate 1": 266, "calcium signal, replicate 2": 82.7, "Outcome": "inactive"}
{"Target gene": "Ada1-1 + Ada1-2", "reagent": 2, "calcium signal, replicate 1": 80.2, "calcium signal, replicate 2": 242, "Outcome": "active"}
{"Target gene": "CG3566", "reagent": 1, "calcium signal, replicate 1": 59.2, "calcium signal, replicate 2": 225, "Outcome": "active"}
{"Target gene": "dgt3", "reagent": 1, "calcium signal, replicate 1": 171, "calcium signal, replicate 2": 85.9, "Outcome": "inactive"}

2 entries already listed, ordered by “calcium signal, replicate 2”, high to low:
{"Target gene": "CG3566", "reagent": 1, "calcium signal, replicate 1": 59.2, "calcium signal, replicate 2": 225, "Outcome": "active"}
{"Target gene": "dgt3", "reagent": 1, "calcium signal, replicate 1": 171, "calcium signal, replicate 2": 85.9, "Outcome": "inactive"}
